# Measurements: the supplement of paper PMC5407854, “Inhibitor of ppGalNAc-T3-mediated O-glycosylation blocks cancer cell invasiveness and lowers FGF23 levels” (eLife, 2017)
# In all, about 1,700 compounds were measured (“T2 sensor activation Q score (MG/GFP ratio z-score vs DMSO controls)”: median about 0.3, highest 2% from about 1.9 on). The list shows a part of the results.
# Test system: ppGalNAc-T2 sensor
# Experiment: T2 sensor activation Q score (MG/GFP ratio z-score vs DMSO controls) (SD units); higher = more sensor activation (inhibition of ppGalNAc-T2 glycosylation)
# Details: HEK293 sensor cells; 10 µM; 6 h
# Method: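 Cells were treated with compound at 10 uM for 6 h, then MG/GFP ratio was read by flow cytometry (10,000 cells per well, duplicate wells). Q = (R - R_neg)/SD_neg relative to DMSO vehicle controls; the signal rises when the glycosyltransferase is inhibited.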
row,Structure (SMILES),T2 sensor activation Q score
1,CC12CCC(C(NC(=S)NN)C1=O)C2(C)C (stereo not given),0.6
2,Cc1cnc2c(N)cc(C)c(C)c2c1,1.15
3,CC(C)(C)c1ccc(OCC(=O)O)cc1,0.35
4,c1ccc(-n2c3ccccc3c3ccccc32)cc1,-0.3
5,Cc1cc2cc3n(c2nn1)N=C(Cl)CC3,0.35
6,O=C(Nc1cccc([N+](=O)[O-])c1)c1ccc2ccccc2c1O,1.55
7,CC(=NNC(N)=O)c1ccc(Cl)c(-n2cccc2)c1,0.6
8,c1cc2c3c(cccc3c1)NC1(CCC3(CC1)Nc1cccc4cccc(c14)N3)N2,1.3
9,CCCCCn1cnc2c(=S)nc(N)[nH]c21,0.5
10,N#CN=CN1CC=C(c2ccc(Cl)cc2)CC1,0.6
11,COc1ccc(C2=NC(=O)NC2c2ccc(OC)cc2)cc1 (stereo not given),1.25
12,NCc1c(O)ccc2ccccc12,-1
13,O=C1OCC/C1=C\NCCCCCCCCN/C=C1\CCOC1=O,0.8
14,CCCCOc1nc2c(c(=O)n(C)c(=O)n2C)n1C,1.8
15,CCOc1ccc2sc(NS(=O)(=O)c3ccc(N)cc3)nc2c1,-0.75
16,O=C(Nc1ccc(Cl)cc1)c1cc2c(cc1O)[nH]c1ccccc12,1.6
17,O=C(O)c1nn(-c2ccccc2-c2n[nH]c(=O)[nH]c2=O)c(=O)[nH]c1=O,-0.75
18,S=C1SCN(CCc2ccccc2)CN1CCc1ccccc1,1.15
19,O=[N+]([O-])c1cc([N+](=O)[O-])c2cccnc2c1O,-0.5
20,CN(C)S(=O)(=O)c1ccc(N)c([N+](=O)[O-])c1,1.1
21,[O-][n+]1ccc(CC(O)(C(F)(F)F)C(F)(F)F)cc1,1.2
22,Cn1cnc([N+](=O)[O-])c1S(=O)(=O)Oc1cccc2ccccc12,0.3
23,Oc1ccccc1-c1nnco1,-0.35
24,CCCCNCC1CCCO1 (stereo not given),0
25,Cc1ccc(-c2cc(C(F)(F)F)nn2-c2ccc(S(N)(=O)=O)cc2)cc1,-2.3
26,Oc1c(CN2CCN(c3ccccc3)CC2)cc(Br)c2cccnc12,0.4
27,CC(C)N(C(=O)c1cccc([N+](=O)[O-])c1)C(C)C,-1.5

# Filtered by structure: the entries above with a Cl atom (4)
row,Structure (SMILES),T2 sensor activation Q score
5,Cc1cc2cc3n(c2nn1)N=C(Cl)CC3,0.35
7,CC(=NNC(N)=O)c1ccc(Cl)c(-n2cccc2)c1,0.6
10,N#CN=CN1CC=C(c2ccc(Cl)cc2)CC1,0.6
16,O=C(Nc1ccc(Cl)cc1)c1cc2c(cc1O)[nH]c1ccccc12,1.6

# Additional results follow:

row,Structure (SMILES),T2 sensor activation Q score
1,CCC(C)(C)c1ccc(Oc2cccc(C(=O)O)c2)cc1,1.5
2,Oc1c(Cl)cc(Cl)cc1C1Nc2ccccc2-n2cccc21 (stereo not given),-0.25
3,CC(C=CC1(O)C(C)=CC(=O)CC1(C)C)=CC(=O)O (stereo not given),-1.25
4,Nc1ncnc2c1ncn2C1OC(CO)C(O)C1N (stereo not given),0.2
5,CCc1cccc2[nH]c3cc([N+](=O)[O-])ccc3c12,-2.4
6,CCC1=C(c2ccc(OC)cc2)CCC(C(=O)O)C1C (stereo not given),1.15
7,NC1=C(O)C(=O)C(c2ccccc2)O1 (stereo not given),1.65
8,CC(C)COC(=O)NC1c2ccccc2Oc2ccccc21,0.95
9,N#CC(c1ccccc1)C(C/C(=N\O)c1ccccc1)c1ccccc1 (stereo not given),-0.8
10,CNC(=O)c1nn(C)c(=O)[nH]c1=O,0.2
11,Cn1c(=S)c2[nH]c(SCCN3CCCC3)nc2n(C)c1=O,0.6
12,Cc1cc(=O)[nH]c(N)n1,0.6
13,C[C@]12CC[C@@H]3c4ccc(O)cc4C[C@@H](CCCCCCCCC[S+]([O-])CCCC(F)(F)C(F)(F)F)[C@H]3[C@@H]1CC[C@@H]2O (stereo not given in full),-1.55
14,CCN(c1ccccc1)c1nc(Cl)nc2c1cnn2C,1.15
15,Nc1nc(=S)c2ncn(C3CCCC3)c2[nH]1,-0.45
16,C#CC1(N2CCCCC2)CCCCC1,0.8
17,CC(=O)OCC1OC(COC(C)=O)(c2ccc(C)cc2)C(OC(C)=O)C1OC(C)=O (stereo not given),0.15
18,Nc1ccc(N=Nc2ccc(O)cc2)c(N)n1,1.4
19,CCOC(=O)c1ccc(Nc2sc(C(=O)c3cccc([N+](=O)[O-])c3)c(N)c2C#N)cc1,-0.4
20,Cc1csc(N=Nc2ccc(N(C)C)cc2)[n+]1[O-],0.4
21,C=CCNC(=S)N1CCN(c2ccccc2Cl)CC1,0.1
22,CCOP(=O)(OCC)/C(C#N)=C/c1ccc([N+](=O)[O-])cc1,2.3
23,Nc1ncnc2c([C@@H]3O[C@H](CO)[C@@H](O)[C@H]3O)c[nH]c12,0
24,c1ccc(-c2nnc3oc(-c4cccs4)nn23)cc1,-1.05
25,S=c1[nH]c2ccccc2c2ccccc12,1.95
26,O=C(CC1C=Cc2ccccc2N1C(=O)c1ccccc1)c1ccccc1 (stereo not given),-0.45
27,Cc1cc(=O)n2[nH]c(-c3ccc(C(C)(C)C)cc3)cc2n1,0.15

row,Structure (SMILES),T2 sensor activation Q score
1,CCc1nc(NC(C)(C)C)c2cnn(-c3ccccc3)c2n1,-0.5
2,O=P(O)(O)C(O)(Cn1ccnc1)P(=O)(O)O,-0.2
3,Nc1ccccc1Sc1cc(Cl)nnc1Cl,-0.05
4,O=C(O)c1ccccc1C(=O)Nc1cccc([N+](=O)[O-])c1,-1.25
5,CC(=O)Nc1ccc2cc3ccc(NC(C)=O)cc3nc2c1,-0.95
6,O=C(CCBr)N1CCN(C(=O)CCBr)CC1,-2.3
7,Clc1c(Cl)c(Cl)c2n[nH]nc2c1Cl,0.2
8,CNC(=O)c1ccc(N2C(=S)N(c3ccc(C#N)c(C(F)(F)F)c3)C(=O)C2(C)C)cc1F,-1.45
9,c1ccc2c(c1)nnn2-c1ccncc1,-0.1
10,Cc1nnsc1C(=O)NCc1c(F)cccc1Cl,-0.3
11,NCC(=O)Nc1ccc(Cl)cc1C(=O)c1ccc[nH]1,-1
12,CCCCCCCCCC[C@H](C(=O)O)[C@]1(C(=O)O)CCC(=O)O1,-0.8
13,CCOc1ccc(/C=C2\CCc3ccccc3C2=O)cc1,0.5
14,O=C(O)c1cc(N2C(=O)C=CC2=O)cc(N2C(=O)C=CC2=O)c1,1.6
15,Oc1ccc2c(ccc3[nH]cnc32)c1,-0.05
16,CSc1ncc2[nH]c(C(O)c3ccccc3)nc2n1 (stereo not given),-0.45
17,CCOC(=O)Nc1ccc2nc(-c3cscn3)[nH]c2c1,-0.45
18,CCOC(=O)c1c[nH][nH]c1=O,1.9
19,Oc1ccc(Cc2ccccc2Cl)c(O)c1,1.95
20,c1ccc(-n2nnnc2-c2cccc3ccccc23)cc1,0.05
21,O=C(Nc1ccc(F)cc1)Oc1ccc[nH]c1=O,-0.25
22,Cn1c(=O)c2c(ncn2CCOC(=O)C(C)(C)Oc2ccc(Cl)cc2)n(C)c1=O,-1.4
23,O=c1cc(-c2ccc(Cl)cc2)[nH]c2ccccc12,-0.25
24,Cc1c(Cc2ccccc2)[n+](=O)c2ccccc2n1[O-],-0.65
25,Cc1ccc2c(c1)c1ccc3c(c1n2C)C(=O)C=CC3=O,-0.85
26,Cc1nc2ccc(Cl)cn2c1[N+](=O)[O-],0.95
